Data taken from article PMC11193767.
These are yes or no findings as the source states them, for the method shown. Binding seen in cells or lysates may run through a third protein. A yes stands for co-enrichment or nearness to the bait. Other partners may have been found.

By UniProt entry, the sequences of proteins in these tests, tags left out.
UniProt Q8IWT6: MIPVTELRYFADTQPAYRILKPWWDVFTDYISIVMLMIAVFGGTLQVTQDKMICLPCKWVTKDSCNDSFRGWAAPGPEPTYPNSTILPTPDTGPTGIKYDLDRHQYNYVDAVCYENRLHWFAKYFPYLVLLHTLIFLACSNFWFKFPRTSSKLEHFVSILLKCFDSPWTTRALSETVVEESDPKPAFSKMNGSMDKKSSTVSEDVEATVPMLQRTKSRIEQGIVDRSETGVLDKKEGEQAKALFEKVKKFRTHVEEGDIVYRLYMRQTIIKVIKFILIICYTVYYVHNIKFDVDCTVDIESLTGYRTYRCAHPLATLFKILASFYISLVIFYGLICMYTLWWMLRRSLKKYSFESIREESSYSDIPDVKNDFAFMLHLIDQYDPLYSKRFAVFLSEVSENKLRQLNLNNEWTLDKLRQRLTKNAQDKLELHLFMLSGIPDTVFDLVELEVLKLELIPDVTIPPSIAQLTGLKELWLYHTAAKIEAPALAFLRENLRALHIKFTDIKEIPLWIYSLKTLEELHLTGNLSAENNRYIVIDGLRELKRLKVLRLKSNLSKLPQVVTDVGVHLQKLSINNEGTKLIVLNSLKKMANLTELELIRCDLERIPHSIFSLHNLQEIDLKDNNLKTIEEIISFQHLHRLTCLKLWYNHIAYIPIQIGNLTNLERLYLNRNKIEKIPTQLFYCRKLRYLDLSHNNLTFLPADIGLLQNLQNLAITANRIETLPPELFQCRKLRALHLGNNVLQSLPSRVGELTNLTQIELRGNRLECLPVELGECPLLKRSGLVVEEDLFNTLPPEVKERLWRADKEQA

B1: UbiA prenyltransferase domain-containing protein 1 (protein, UniProt Q9Y5Z9-1 1-338)
chain: MAASQVLGEKINILSGETVKAGDRDPLGNDCPEQDRLPQRSWRQKCASYVLALRPWSFSASLTPVALGSALAYRSHGVLDPRLLVGCAVAVLAVHGAGNLVNTYYDFSKGIDHKKSDDRTLVDRILEPQDVVRFGVFLYTLGCVCAACLYYLSPLKLEHLALIYFGGLSGSFLYTGGIGFKYVALGDLIILITFGPLAVMFAYAIQVGSLAIFPLVYAIPLALSTEAILHSNNTRDMESDREAGIVTLAILIGPTFSYILYNTLLFLPYLVFSILATHCTISLALPLLTIPMAFSLERQFRSQAFNKLPQRTAKLNLLLGLFYVFGIILAPAGSLPKI
B2: Lamina-associated polypeptide 2, isoform alpha (protein, UniProt P42166 1-694)
chain: MPEFLEDPSVLTKDKLKSELVANNVTLPAGEQRKDVYVQLYLQHLTARNRPPLPAGTNSKGPPDFSSDEEREPTPVLGSGAAAAGRSRAAVGRKATKKTDKPRQEDKDDLDVTELTNEDLLDQLVKYGVNPGPIVGTTRKLYEKKLLKLREQGTESRSSTPLPTISSSAENTRQNGSNDSDRYSDNEEGKKKEHKKVKSTRDIVPFSELGTTPSGGGFFQGISFPEISTRPPLGSTELQAAKKVHTSKGDLPREPLVATNLPGRGQLQKLASERNLFISCKSSHDRCLEKSSSSSSQPEHSAMLVSTAASPSLIKETTTGYYKDIVENICGREKSGIQPLCPERSHISDQSPLSSKRKALEESESSQLISPPLAQAIRDYVNSLLVQGGVGSLPGTSNSMPPLDVENIQKRIDQSKFQETEFLSPPRKVPRLSEKSVEERDSGSFVAFQNIPGSELMSSFAKTVVSHSLTTLGLEVAKQSQHDKIDASELSFPFHESILKVIEEEWQQVDRQLPSLACKYPVSSREATQILSVPKVDDEILGFISEATPLGGIQAASTESCNQQLDLALCRAYEAAASALQIATHTAFVAKAMQADISQAAQILSSDPSRTHQALGILSKTYDAASYICEAAFDEVKMAAHTMGNATVGRRYLWLKDCKINLASKNKLASTPFKGGTLFGGEVCKVIKKRGNKH
B3: VANGL planar cell polarity protein 1 (protein, UniProt Q8TAA9-1 1-524)
chain: MDTESTYSGYSYYSSHSKKSHRQGERTRERHKSPRNKDGRGSEKSVTIQPPTGEPLLGNDSTRTEEVQDDNWGETTTAITGTSEHSISQEDIARISKDMEDSVGLDCKRYLGLTVASFLGLLVFLTPIAFILLPPILWRDELEPCGTICEGLFISMAFKLLILLIGTWALFFRKRRADMPRVFVFRALLLVLIFLFVVSYWLFYGVRILDSRDRNYQGIVQYAVSLVDALLFIHYLAIVLLELRQLQPMFTLQVVRSTDGESRFYSLGHLSIQRAALVVLENYYKDFTIYNPNLLTASKFRAAKHMAGLKVYNVDGPSNNATGQSRAMIAAAARRRDSSHNELYYEEAEHERRVKKRKARLVVAVEEAFIHIQRLQAEEQQKAPGEVMDPREAAQAIFPSMARALQKYLRITRQQNYHSMESILQHLAFCITNGMTPKAFLERYLSAGPTLQYDKDRWLSTQWRLVSDEAVTNGLRDGIVFVLKCLDFSLVVNVKKIPFIILSEEFIDPKSHKFVLRLQSETSV
B4: Ubiquitin-conjugating enzyme E2 J1 (protein, UniProt Q9Y385 1-318)
chain: METRYNLKSPAVKRLMKEAAELKDPTDHYHAQPLEDNLFEWHFTVRGPPDSDFDGGVYHGRIVLPPEYPMKPPSIILLTANGRFEVGKKICLSISGHHPETWQPSWSIRTALLAIIGFMPTKGEGAIGSLDYTPEERRALAKKSQDFCCEGCGSAMKDVLLPLKSGSDSSQADQEAKELARQISFKAEVNSSGKTISESDLNHSFSLTDLQDDIPTTFQGATASTSYGLQNSSAASFHQPTQPVAKNTSMSPRQRRAQQQSQRRLSTSPDVIQGHQPRDNHTDHGGSAVLIVILTLALAALIFRRIYLANEYIFDFEL
B5: Dual specificity protein kinase TTK (protein, UniProt P33981-1 1-857)
chain: MESEDLSGRELTIDSIMNKVRDIKNKFKNEDLTDELSLNKISADTTDNSGTVNQIMMMANNPEDWLSLLLKLEKNSVPLSDALLNKLIGRYSQAIEALPPDKYGQNESFARIQVRFAELKAIQEPDDARDYFQMARANCKKFAFVHISFAQFELSQGNVKKSKQLLQKAVERGAVPLEMLEIALRNLNLQKKQLLSEEEKKNLSASTVLTAQESFSGSLGHLQNRNNSCDSRGQTTKARFLYGENMPPQDAEIGYRNSLRQTNKTKQSCPFGRVPVNLLNSPDCDVKTDDSVVPCFMKRQTSRSECRDLVVPGSKPSGNDSCELRNLKSVQNSHFKEPLVSDEKSSELIITDSITLKNKTESSLLAKLEETKEYQEPEVPESNQKQWQSKRKSECINQNPAASSNHWQIPELARKVNTEQKHTTFEQPVFSVSKQSPPISTSKWFDPKSICKTPSSNTLDDYMSCFRTPVVKNDFPPACQLSTPYGQPACFQQQQHQILATPLQNLQVLASSSANECISVKGRIYSILKQIGSGGSSKVFQVLNEKKQIYAIKYVNLEEADNQTLDSYRNEIAYLNKLQQHSDKIIRLYDYEITDQYIYMVMECGNIDLNSWLKKKKSIDPWERKSYWKNMLEAVHTIHQHGIVHSDLKPANFLIVDGMLKLIDFGIANQMQPDTTSVVKDSQVGTVNYMPPEAIKDMSSSRENGKSKSKISPKSDVWSLGCILYYMTYGKTPFQQIINQISKLHAIIDPNHEIEFPDIPEKDLQDVLKCCLKRDPKQRISIPELLAHPYVQIQTHPVNQMAKGTTEEMKYVLGQLVGLNSPNSILKAAKTLYEHYSGGESHNSSSSKTFEKKRGKK
B6: Macoilin 1 (protein, UniProt Q8N5G2-1 1-664)
chain: MKRRNADCSKLRRPLKRNRITEGIYGSTFLYLKFLVVWALVLLADFVLEFRFEYLWPFWLFIRSVYDSFRYQGLAFSVFFVCVAFTSNIICLLFIPIQWLFFAASTYVWVQYVWHTERGVCLPTVSLWILFVYIEAAIRFKDLKNFHVDLCRPFAAHCIGYPVVTLGFGFKSYVSYKMRLRKQKEVQKENEFYMQLLQQALPPEQQMLQKQEKEAEEAAKGLPDMDSSILIHHNGGIPANKKLSTTLPEIEYREKGKEKDKDAKKHNLGINNNNILQPVDSKIQEIEYMENHINSKRLNNDLVGSTENLLKEDSCTASSKNYKNASGVVNSSPRSHSATNGSIPSSSSKNEKKQKCTSKSPSTHKDLMENCIPNNQLSKPDALVRLEQDIKKLKADLQASRQVEQELRSQISSLSSTERGIRSEMGQLRQENELLQNKLHNAVQMKQKDKQNISQLEKKLKAEQEARSFVEKQLMEEKKRKKLEEATAARAVAFAAASRGECTETLRNRIRELEAEGKKLTMDMKVKEDQIRELELKVQELRKYKENEKDTEVLMSALSAMQDKTQHLENSLSAETRIKLDLFSALGDAKRQLEIAQGQILQKDQEIKDLKQKIAEVMAVMPSITYSAATSPLSPVSPHYSSKFVETSPSGLDPNASVYQPLKK
B7: USP6 N-terminal-like protein (protein, UniProt Q92738-2 1-845)
chain: MRTEAVVNSQGQTDYLTKDSDQDVALKLAQERAEIVAKYDRGREGAEIEPWEDADYLVYKVTDRFGFLHEEELPDHNVAVERQKHLEIERTTKWLKMLKGWEKYKNTEKFHRRIYKGIPLQLRGEVWALLLEIPKMKEETRDLYSKLKHRARGCSPDIRQIDLDVNRTFRDHIMFRDRYGVKQQSLFHVLAAYSIYNTEVGYCQGMSQITALLLMYMNEEDAFWALVKLFSGPKHAMHGFFVQGFPKLLRFQEHHEKILNKFLSKLKQHLDSQEIYTSFYTMKWFFQCFLDRTPFTLNLRIWDIYIFEGERVLTAMSYTILKLHKKHLMKLSMEELVEFFQETLAKDFFFEDDFVIEQLQISMTELKRAKLDLPEPGKEDEYPKKPLGQLPPELQSWGVHHLSNGQRSVGRPSPLASGRRESGAPHRRHEHSPHPQSRTGTPERAQPPRRKSVEEESKKLKDEADFQRKLPSGPQDSSRQYNHAAANQNSNATSNIRKEFVPKWNKPSDVSATERTAKYTMEGKGRAAHPALAVTVPGPAEVRVSNVRPKMKALDAEDGKRGSTASQYDNVPGPELDSGASVEEALERAYSQSPRHALYPPSPRKHAEPSSSPSKVSNKFTFKVQPPSHARYPSQLDGEARGLAHPPSYSNPPVYHGNSPKHFPTANSSFASPQFSPGTQLNPSRRPHGSTLSVSASPEKSYSRPSPLVLPSSRIEVLPVDTGAGGYSGNSGSPKNGKLIIPPVDYLPDNRTWSEVSYTYRPETQGQSWTRDASRGNLPKYSAFQLAPFQDHGLPAVSVDSPVRYKASPAAEDASPSGYPYSGPPPPAYHYRNRDGLSIQESVLL

molecular target: LRRC8A-BirA*-HA fusion protein (human) (UniProt Q8IWT6); assay: proximity labelling; BioID: HEK293 cells stably expressing LRRC8A-BirA*-HA (two clones), 50 uM biotin 24 h, RIPA lysis, streptavidin bead pull-down of biotinylated proteins, TMT labelling and LC-MS/MS; hits: FDR <= 0.05 and fold change >= 2 against the no-biotin control

binding | Binder
binds | B1
binds | B2
binds | B3
binds | B4
binds | B5
binds | B6
binds | B7
